# Laboratory results: article PMC12607013
# Results are given in words; binding and its absence hold for the method and conditions named. In cells and extracts the contact can be indirect. Some results given as binding are weak or reduced against the parent protein; the word gives no strength. For part of these data: Tags and fused reporters may be left off the sequences shown.
# T1: CYLD (UniProt Q9NQC7)
# T1 sequence: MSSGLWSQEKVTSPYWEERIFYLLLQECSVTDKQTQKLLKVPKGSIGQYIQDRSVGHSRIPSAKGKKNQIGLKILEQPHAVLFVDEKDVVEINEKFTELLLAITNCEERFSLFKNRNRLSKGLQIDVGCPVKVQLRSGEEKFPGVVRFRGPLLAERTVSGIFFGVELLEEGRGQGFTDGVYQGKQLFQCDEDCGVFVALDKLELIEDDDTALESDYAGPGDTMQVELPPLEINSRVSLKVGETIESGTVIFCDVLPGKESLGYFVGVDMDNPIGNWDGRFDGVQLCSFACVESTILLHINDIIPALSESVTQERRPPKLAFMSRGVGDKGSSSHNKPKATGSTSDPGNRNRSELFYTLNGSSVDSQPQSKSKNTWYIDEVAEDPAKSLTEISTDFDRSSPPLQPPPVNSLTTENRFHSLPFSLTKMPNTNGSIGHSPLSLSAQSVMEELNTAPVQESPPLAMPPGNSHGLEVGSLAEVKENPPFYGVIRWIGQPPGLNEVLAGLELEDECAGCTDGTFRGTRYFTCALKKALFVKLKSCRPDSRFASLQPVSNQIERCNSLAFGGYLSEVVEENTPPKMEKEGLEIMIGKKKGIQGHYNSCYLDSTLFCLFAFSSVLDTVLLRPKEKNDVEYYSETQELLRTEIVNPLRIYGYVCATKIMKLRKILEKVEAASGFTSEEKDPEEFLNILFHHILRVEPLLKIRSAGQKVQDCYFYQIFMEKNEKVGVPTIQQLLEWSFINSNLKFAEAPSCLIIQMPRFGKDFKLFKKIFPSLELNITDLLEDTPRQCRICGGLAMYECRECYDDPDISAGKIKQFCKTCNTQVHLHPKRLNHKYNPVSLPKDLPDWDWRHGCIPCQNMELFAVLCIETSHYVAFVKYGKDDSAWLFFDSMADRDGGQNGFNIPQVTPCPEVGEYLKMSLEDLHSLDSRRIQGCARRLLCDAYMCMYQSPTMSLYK
# T2: FLAG-tagged full-length OTUD4 (ovarian tumor family deubiquitinase 4), WT (human) (UniProt Q01804)
# T2 sequence: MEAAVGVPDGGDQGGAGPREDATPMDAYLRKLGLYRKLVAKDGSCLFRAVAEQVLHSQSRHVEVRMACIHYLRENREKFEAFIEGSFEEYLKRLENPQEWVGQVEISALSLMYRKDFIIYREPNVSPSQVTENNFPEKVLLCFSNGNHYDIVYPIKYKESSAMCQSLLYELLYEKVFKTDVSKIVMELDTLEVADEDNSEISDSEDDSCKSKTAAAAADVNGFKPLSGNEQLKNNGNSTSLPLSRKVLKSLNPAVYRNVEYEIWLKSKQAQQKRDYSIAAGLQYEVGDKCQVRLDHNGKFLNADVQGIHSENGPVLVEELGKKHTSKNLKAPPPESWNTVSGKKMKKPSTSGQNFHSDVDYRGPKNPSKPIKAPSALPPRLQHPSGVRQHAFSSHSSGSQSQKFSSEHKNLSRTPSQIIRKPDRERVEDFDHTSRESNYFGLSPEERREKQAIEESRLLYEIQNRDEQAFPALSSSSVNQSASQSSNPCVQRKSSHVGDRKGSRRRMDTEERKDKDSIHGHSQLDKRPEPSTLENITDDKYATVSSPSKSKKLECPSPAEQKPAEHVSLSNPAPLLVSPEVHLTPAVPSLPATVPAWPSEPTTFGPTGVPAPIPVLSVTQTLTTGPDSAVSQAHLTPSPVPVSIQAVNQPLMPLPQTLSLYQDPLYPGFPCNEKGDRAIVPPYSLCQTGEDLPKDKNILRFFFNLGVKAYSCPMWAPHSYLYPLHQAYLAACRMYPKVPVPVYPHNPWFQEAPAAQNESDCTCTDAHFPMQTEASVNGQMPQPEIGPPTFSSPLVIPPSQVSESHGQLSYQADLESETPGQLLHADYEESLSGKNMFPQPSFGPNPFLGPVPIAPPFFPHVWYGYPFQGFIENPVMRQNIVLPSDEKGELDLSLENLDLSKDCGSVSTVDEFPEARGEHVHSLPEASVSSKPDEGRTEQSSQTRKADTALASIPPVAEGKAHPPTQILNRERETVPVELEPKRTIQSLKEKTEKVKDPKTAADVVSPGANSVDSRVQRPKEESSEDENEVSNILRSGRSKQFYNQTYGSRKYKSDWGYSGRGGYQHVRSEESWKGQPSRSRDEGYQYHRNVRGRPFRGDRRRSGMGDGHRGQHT
# T3: FLAG-tagged full-length OTUD4 H148Y (tumor-associated variant) (human) (UniProt Q01804)
# T3 sequence: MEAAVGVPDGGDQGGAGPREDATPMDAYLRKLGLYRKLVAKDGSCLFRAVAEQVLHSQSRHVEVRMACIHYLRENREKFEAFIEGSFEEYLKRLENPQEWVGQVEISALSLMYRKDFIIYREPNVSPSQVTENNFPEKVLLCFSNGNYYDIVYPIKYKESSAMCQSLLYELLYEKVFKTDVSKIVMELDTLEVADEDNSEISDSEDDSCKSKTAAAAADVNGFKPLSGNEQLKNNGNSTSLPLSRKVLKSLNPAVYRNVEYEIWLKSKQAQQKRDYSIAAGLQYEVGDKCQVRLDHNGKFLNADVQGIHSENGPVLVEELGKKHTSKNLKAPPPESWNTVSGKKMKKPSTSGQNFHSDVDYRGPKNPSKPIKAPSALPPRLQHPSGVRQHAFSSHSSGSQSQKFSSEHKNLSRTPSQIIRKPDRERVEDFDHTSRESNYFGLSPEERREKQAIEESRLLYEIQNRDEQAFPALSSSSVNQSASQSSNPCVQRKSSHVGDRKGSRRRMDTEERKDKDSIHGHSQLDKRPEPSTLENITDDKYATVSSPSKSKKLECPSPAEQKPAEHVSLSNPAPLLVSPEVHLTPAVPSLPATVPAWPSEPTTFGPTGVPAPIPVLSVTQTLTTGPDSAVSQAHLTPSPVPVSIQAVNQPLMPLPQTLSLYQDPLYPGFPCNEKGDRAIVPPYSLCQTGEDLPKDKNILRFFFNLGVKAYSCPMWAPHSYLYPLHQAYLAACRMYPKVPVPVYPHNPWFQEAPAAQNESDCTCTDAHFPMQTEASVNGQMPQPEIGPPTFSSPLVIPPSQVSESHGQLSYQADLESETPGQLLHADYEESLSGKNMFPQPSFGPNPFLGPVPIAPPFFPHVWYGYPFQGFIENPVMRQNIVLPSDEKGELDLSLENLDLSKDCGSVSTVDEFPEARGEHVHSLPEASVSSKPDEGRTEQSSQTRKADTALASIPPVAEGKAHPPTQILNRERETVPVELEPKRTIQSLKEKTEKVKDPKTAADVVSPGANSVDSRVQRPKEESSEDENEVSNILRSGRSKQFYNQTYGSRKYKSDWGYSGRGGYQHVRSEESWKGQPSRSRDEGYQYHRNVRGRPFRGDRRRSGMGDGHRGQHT
# T4: OTUD4 N-terminal OTU domain (aa 1–180) (human) (UniProt Q01804)
# T4 sequence: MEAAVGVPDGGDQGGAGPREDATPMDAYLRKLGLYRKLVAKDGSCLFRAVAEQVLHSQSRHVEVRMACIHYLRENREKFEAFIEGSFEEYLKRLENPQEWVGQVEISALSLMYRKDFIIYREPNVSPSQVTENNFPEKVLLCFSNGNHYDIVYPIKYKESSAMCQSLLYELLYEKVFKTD
# T5: endogenous OTUD4 in H1299 NSCLC cells (human (endogenous in H1299)) (UniProt Q01804)
# T5 sequence: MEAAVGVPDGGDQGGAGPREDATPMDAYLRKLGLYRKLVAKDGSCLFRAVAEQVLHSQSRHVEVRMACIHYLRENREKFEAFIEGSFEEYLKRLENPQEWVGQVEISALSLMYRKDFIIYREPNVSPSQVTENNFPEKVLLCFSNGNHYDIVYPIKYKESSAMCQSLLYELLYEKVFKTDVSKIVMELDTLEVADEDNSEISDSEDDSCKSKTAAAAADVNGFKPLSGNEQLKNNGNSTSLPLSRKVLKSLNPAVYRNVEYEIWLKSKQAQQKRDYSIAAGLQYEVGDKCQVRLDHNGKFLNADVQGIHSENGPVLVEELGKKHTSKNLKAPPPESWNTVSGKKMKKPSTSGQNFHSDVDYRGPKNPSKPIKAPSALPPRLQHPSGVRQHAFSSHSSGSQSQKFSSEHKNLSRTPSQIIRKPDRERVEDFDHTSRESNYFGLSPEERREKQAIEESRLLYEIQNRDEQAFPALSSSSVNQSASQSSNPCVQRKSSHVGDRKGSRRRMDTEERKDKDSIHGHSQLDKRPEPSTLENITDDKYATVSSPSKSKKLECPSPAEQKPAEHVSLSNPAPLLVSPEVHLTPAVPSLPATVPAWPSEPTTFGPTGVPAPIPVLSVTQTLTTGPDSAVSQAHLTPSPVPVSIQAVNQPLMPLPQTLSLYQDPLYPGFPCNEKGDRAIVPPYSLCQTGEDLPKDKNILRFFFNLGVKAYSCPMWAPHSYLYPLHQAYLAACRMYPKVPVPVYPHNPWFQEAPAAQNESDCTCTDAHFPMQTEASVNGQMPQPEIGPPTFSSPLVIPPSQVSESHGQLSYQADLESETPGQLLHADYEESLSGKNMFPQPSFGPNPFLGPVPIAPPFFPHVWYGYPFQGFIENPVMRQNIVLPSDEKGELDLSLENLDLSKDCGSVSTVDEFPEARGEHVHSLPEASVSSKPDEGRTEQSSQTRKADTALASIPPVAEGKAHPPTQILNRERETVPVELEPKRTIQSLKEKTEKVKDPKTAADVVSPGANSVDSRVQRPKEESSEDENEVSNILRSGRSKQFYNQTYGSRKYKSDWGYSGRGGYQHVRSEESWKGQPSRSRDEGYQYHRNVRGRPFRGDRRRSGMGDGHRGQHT
# Key:
# [1] = molecular target: T1, CYLD; assay: co-IP; HEK293T cells transfected with the indicated plasmids, 48 to 72 h; clarified lysates incubated overnight at 4 °C with anti-FLAG M2-agarose or anti-HA-agarose beads; Western blot
# [2] = molecular target: T2, FLAG-tagged full-length OTUD4 (ovarian tumor family deubiquitinase 4), WT (human); assay: as above
# [3] = molecular target: T3, FLAG-tagged full-length OTUD4 H148Y (tumor-associated variant) (human); assay: as above
# [4] = molecular target: T4, OTUD4 N-terminal OTU domain (aa 1–180) (human); assay: as above
# [5] = molecular target: T5, endogenous OTUD4 in H1299 NSCLC cells (human (endogenous in H1299)); assay: co-IP; endogenous proteins in H1299 NSCLC cells; reciprocal co-IP with antibodies to OTUD4 and to TAK1
binding [1],binding [2],binding [3],binding [4],binding [5],Binder
binds,binds,,,,"endogenous TAK1 (transforming growth factor β–activated kinase 1) in HEK293T cells (protein, UniProt O43318 1-606) MSTASAASSSSSSSAGEMIEAPSQVLNFEEIDYKEIEVEEVVGRGAFGVVCKAKWRAKDVAIKQIESESERKAFIVELRQLSRVNHPNIVKLYGACLNPVCLVMEYAEGGSLYNVLHGAEPLPYYTAAHAMSWCLQCSQGVAYLHSMQPKALIHRDLKPPNLLLVAGGTVLKICDFGTACDIQTHMTNNKGSAAWMAPEVFEGSNYSEKCDVFSWGIILWEVITRRKPFDEIGGPAFRIMWAVHNGTRPPLIKNLPKPIESLMTRCWSKDPSQRPSMEEIVKIMTHLMRYFPGADEPLQYPCQYSDEGQSNSATSTGSFMDIASTNTSNKSDTNMEQVPATNDTIKRLESKLLKNQAKQQSESGRLSLGASRGSSVESLPPTSEGKRMSADMSEIEARIAATTAYSKPKRGHRKTASFGNILDVPEIVISGNGQPRRRSIQDLTVTGTEPGQVSSRSSSPSVRMITTSGPTSEKPTRSHPWTPDDSTDTNGSDNSIPMAYLTLDHQLQPLAPCPNSKESMAVFEQHCKMAQEYMKVQTEIALLLQRKQELVAELDQDEKDQQNTSRLVQEHKKLLDENKSLSTYYQQCKKQLEVIRSQQQKRQGTS"
,binds,binds,binds,,"HA-TAK1 (protein, UniProt O43318 1-606) MSTASAASSSSSSSAGEMIEAPSQVLNFEEIDYKEIEVEEVVGRGAFGVVCKAKWRAKDVAIKQIESESERKAFIVELRQLSRVNHPNIVKLYGACLNPVCLVMEYAEGGSLYNVLHGAEPLPYYTAAHAMSWCLQCSQGVAYLHSMQPKALIHRDLKPPNLLLVAGGTVLKICDFGTACDIQTHMTNNKGSAAWMAPEVFEGSNYSEKCDVFSWGIILWEVITRRKPFDEIGGPAFRIMWAVHNGTRPPLIKNLPKPIESLMTRCWSKDPSQRPSMEEIVKIMTHLMRYFPGADEPLQYPCQYSDEGQSNSATSTGSFMDIASTNTSNKSDTNMEQVPATNDTIKRLESKLLKNQAKQQSESGRLSLGASRGSSVESLPPTSEGKRMSADMSEIEARIAATTAYSKPKRGHRKTASFGNILDVPEIVISGNGQPRRRSIQDLTVTGTEPGQVSSRSSSPSVRMITTSGPTSEKPTRSHPWTPDDSTDTNGSDNSIPMAYLTLDHQLQPLAPCPNSKESMAVFEQHCKMAQEYMKVQTEIALLLQRKQELVAELDQDEKDQQNTSRLVQEHKKLLDENKSLSTYYQQCKKQLEVIRSQQQKRQGTS"
,,,,binds,"endogenous TAK1 in H1299 NSCLC cells (protein, UniProt O43318 1-606) MSTASAASSSSSSSAGEMIEAPSQVLNFEEIDYKEIEVEEVVGRGAFGVVCKAKWRAKDVAIKQIESESERKAFIVELRQLSRVNHPNIVKLYGACLNPVCLVMEYAEGGSLYNVLHGAEPLPYYTAAHAMSWCLQCSQGVAYLHSMQPKALIHRDLKPPNLLLVAGGTVLKICDFGTACDIQTHMTNNKGSAAWMAPEVFEGSNYSEKCDVFSWGIILWEVITRRKPFDEIGGPAFRIMWAVHNGTRPPLIKNLPKPIESLMTRCWSKDPSQRPSMEEIVKIMTHLMRYFPGADEPLQYPCQYSDEGQSNSATSTGSFMDIASTNTSNKSDTNMEQVPATNDTIKRLESKLLKNQAKQQSESGRLSLGASRGSSVESLPPTSEGKRMSADMSEIEARIAATTAYSKPKRGHRKTASFGNILDVPEIVISGNGQPRRRSIQDLTVTGTEPGQVSSRSSSPSVRMITTSGPTSEKPTRSHPWTPDDSTDTNGSDNSIPMAYLTLDHQLQPLAPCPNSKESMAVFEQHCKMAQEYMKVQTEIALLLQRKQELVAELDQDEKDQQNTSRLVQEHKKLLDENKSLSTYYQQCKKQLEVIRSQQQKRQGTS"
